# Reference: PMC7819943, “Rice protein-binding microarrays: a tool to detect cis-acting elements near promoter regions in rice”
# Sequences of proteins named here, by UniProt entry; tags and fusion partners are left off.
# UniProt Q0JBA9, entry or part of it: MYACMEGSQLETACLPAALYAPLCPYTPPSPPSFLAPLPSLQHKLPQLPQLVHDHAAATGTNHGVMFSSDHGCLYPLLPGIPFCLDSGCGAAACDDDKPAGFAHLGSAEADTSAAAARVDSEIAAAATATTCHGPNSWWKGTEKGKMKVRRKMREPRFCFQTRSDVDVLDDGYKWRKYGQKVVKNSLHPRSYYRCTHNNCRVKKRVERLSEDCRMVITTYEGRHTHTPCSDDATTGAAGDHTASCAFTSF
# The other results are listed elsewhere or left out.
# Biological target: OsWRKY34 (Oryza sativa, UniProt Q0JBA9 1-250)
# Test: protein-binding microarray (RPBM); PBS, 2% BSA, 51.3 ng/ul salmon testes DNA, 50 uM zinc acetate, 200 nM TF, 25 C, 1 h; high values mean tight binding
# Conditions: protein: recombinant; tags: N-terminal polyhistidine and DsRed monomer fusion (pET32a); label: CyDye5-dUTP incorporated in the synthesized complementary strand; 3' TTTTT single-stranded linker to array surface; dsDNA, one strand shown
# Outline: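 The binding signal is fluorescence intensity per array feature (arbitrary units). Readings came from an Axon 4000B scanner after a washed, 2% BSA-blocked, double-stranded custom Agilent array had been incubated for 1 h at 25 °C with 200 nM protein and 50 µM zinc acetate. The protein was a Ni–NTA-purified transcription factor fused N-terminally to polyhistidine and DsRed, expressed in E. coli BL21-CodonPlus.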
row,Sequence,binding signal
1,GCTTCTACAATCGGATGGATTCACCATTGATTCTCGTTTTCGGAGTCACCTAGTGCAG,8940 fluorescence intensity (a.u.)
2,CAAGTACATTCGAGGCCAGTATTTACACCATCCTCTATGCCGGAGTCACCTAGTGCAG,9930 fluorescence intensity (a.u.)
3,CTCGGTCTTGGTCTTTTCGGTTTGGTCTAAATCTGTCCACCGGAGTCACCTAGTGCAG,9600 fluorescence intensity (a.u.)
4,CTTATTTTACCTTTTGATGATGCTGTTCCTGTTCTCTCTCCGGAGTCACCTAGTGCAG,12000 fluorescence intensity (a.u.)
5,GTCAACCGTCCATAAAAAATTTTCGGCTCCCGCCGTGTTCCGGAGTCACCTAGTGCAG,9440 fluorescence intensity (a.u.)
6,ACTAATCATTTTCTTAGGCCCTGTTTCAACTCATTTATTTCGGAGTCACCTAGTGCAG,10300 fluorescence intensity (a.u.)
7,ACTATTAAACTGTATGCTTTCCTTAAAAAAGTTTCTATATCGGAGTCACCTAGTGCAG,8830 fluorescence intensity (a.u.)
8,GCGTCCAATCCCTGAATCCGCTGGCCCGCGTCGAAACCTACGGAGTCACCTAGTGCAG,8710 fluorescence intensity (a.u.)
9,AAATTGTCCTTTTCATTCAGGCCTTGTTTAGTTCGCGAAACGGAGTCACCTAGTGCAG,8410 fluorescence intensity (a.u.)
10,CATCCATTGTTTCATTTGCTAACTGATGTAGTTATTACTTCGGAGTCACCTAGTGCAG,9080 fluorescence intensity (a.u.)
11,GAGAGGCCCATTTAGCTATCACTGTATTGGTTAACCGGTTCGGAGTCACCTAGTGCAG,8640 fluorescence intensity (a.u.)
12,TGTATCATTTGTATATTGTCTTTGATATGTTGTCTTCCTCCGGAGTCACCTAGTGCAG,11100 fluorescence intensity (a.u.)
13,CCCCGACTCATCGTCTTCCACGGCCTCACCGCGAAGCCGCCGGAGTCACCTAGTGCAG,8200 fluorescence intensity (a.u.)
14,AAAACCCATCCATAATCTTGGACTAATTTGCGAGACGAATCGGAGTCACCTAGTGCAG,8030 fluorescence intensity (a.u.)
15,GCCTCAGTAGCGTGCGTTCAACACTCTCCTTTCTCAAAACCGGAGTCACCTAGTGCAG,8830 fluorescence intensity (a.u.)
16,AGAGTTTTATTCATGTTTTGTTTTCTATCGCATGTATTGACGGAGTCACCTAGTGCAG,13700 fluorescence intensity (a.u.)
17,CATTTTGCCACACTTGAGGTAGATCAGTTTGACCAAATGTCGGAGTCACCTAGTGCAG,11000 fluorescence intensity (a.u.)
18,CTCCCTATTTATATGTGCACCACGATCCATCATATCGCTTCGGAGTCACCTAGTGCAG,9790 fluorescence intensity (a.u.)
19,CCTCCAACGCCGCACGCCCGCACCCTAATCGCCGCCCGCGCGGAGTCACCTAGTGCAG,9040 fluorescence intensity (a.u.)
20,TTTTCTATTTTTTTTATTTTTTAATACGTATGTATATAAACGGAGTCACCTAGTGCAG,8320 fluorescence intensity (a.u.)
21,CTTTATGTATAGGTGTTTCTATTCTCATATGACTGATGTACGGAGTCACCTAGTGCAG,8530 fluorescence intensity (a.u.)

row,Sequence,binding signal
1,ACCCTAGAGCTCACCCTAGCGCGCCGCCGCCGCAGCCATCCGGAGTCACCTAGTGCAG,10100 fluorescence intensity (a.u.)
2,GAGAGTAAGGATCAGGAGGAGGTGGAGGAGGAGGAGGATGCGGAGTCACCTAGTGCAG,8300 fluorescence intensity (a.u.)
3,TCTACGTTGCGGCATTGGCTGGGATTCTTGAGGGATTTCGCGGAGTCACCTAGTGCAG,9420 fluorescence intensity (a.u.)
4,AAATCAAATGCGCACCGTGTGCTCTCATGTTGAAATTTCACGGAGTCACCTAGTGCAG,8400 fluorescence intensity (a.u.)
5,TCCGCCGCCGTCTCCGCCGCCTCCAGCCATCGATCCCGGCCGGAGTCACCTAGTGCAG,8250 fluorescence intensity (a.u.)
6,CTCGTCTCGTCTCGCCGACCGACCCATCCATCCATCGATCCGGAGTCACCTAGTGCAG,9150 fluorescence intensity (a.u.)
7,CTCTTCTCCTCCAAGGATGGGGAGGTGGGGATGGTGGGGACGGAGTCACCTAGTGCAG,19400 fluorescence intensity (a.u.)
8,AATTGCCACCTGTTTCCGCATCCGCCTCTACCGAGGTTTTCGGAGTCACCTAGTGCAG,8220 fluorescence intensity (a.u.)
9,CTTCTCTGGTCCCGGCCGGCCTTCCCCTAGATCTTCAGATCGGAGTCACCTAGTGCAG,8430 fluorescence intensity (a.u.)
10,CACGGCCACACATTTCTCCATTTCTAATCACCTTGGATGCCGGAGTCACCTAGTGCAG,9940 fluorescence intensity (a.u.)
11,ATTAAAAAAGGGAGAAACGGGCGGGGTGCTTGGCTTGACCCGGAGTCACCTAGTGCAG,8840 fluorescence intensity (a.u.)
12,TGTCTGTTGAATGCTTGTCGTCTATGTTTGTTCTACCGATCGGAGTCACCTAGTGCAG,10700 fluorescence intensity (a.u.)
13,CTTTGCAATGTCCTGACATAGTGTTGTTGTGTTCTGTAAGCGGAGTCACCTAGTGCAG,8220 fluorescence intensity (a.u.)
14,TCACTTTAAATTTTTCACTTCCTTCTTCATTTTATTCACTCGGAGTCACCTAGTGCAG,8800 fluorescence intensity (a.u.)
15,GCTTACTTCCATCATGTTTCTATCTCTAATATCTTTGATACGGAGTCACCTAGTGCAG,9310 fluorescence intensity (a.u.)
16,CATTGCCGCGCCGAGCTCTTCTTCTTCACCATCAGCGAAGCGGAGTCACCTAGTGCAG,8740 fluorescence intensity (a.u.)
17,ATGCGTTTTCTTGGCTGGCACTGGTAGTATGTACTGTACTCGGAGTCACCTAGTGCAG,8210 fluorescence intensity (a.u.)
18,ACTGTGCAAAAGTTGGTATCTTTATTTCTCCATATAGTTTCGGAGTCACCTAGTGCAG,8630 fluorescence intensity (a.u.)
19,CCTCTCCCTTCTCCTCTTTATCTATTTCCATTTGCATTTCCGGAGTCACCTAGTGCAG,8920 fluorescence intensity (a.u.)
20,TCTTATATGTTATGCAAGTATGTTTCTATCTCGTATCTTCCGGAGTCACCTAGTGCAG,16500 fluorescence intensity (a.u.)
21,GATCTTGATGAGTTATACCACTTTATTGTTGATGACCTTTCGGAGTCACCTAGTGCAG,8120 fluorescence intensity (a.u.)

row,Sequence,binding signal
1,CTGATCATTGCTGCTCATGGCCTCACCGATCGTTCGATCTCGGAGTCACCTAGTGCAG,8070 fluorescence intensity (a.u.)
2,TTTGTCTCGCAATTTACACGTAAACTGTGTCATTGATTTTCGGAGTCACCTAGTGCAG,8920 fluorescence intensity (a.u.)
3,TCGTCAGTTGGTCTCCTTACCAACTTGATTAGTAGTAGTACGGAGTCACCTAGTGCAG,8030 fluorescence intensity (a.u.)
4,TCTTGCCCTAAGGGGCTGTATTTTTCTCCCGCTATATTTACGGAGTCACCTAGTGCAG,10200 fluorescence intensity (a.u.)
5,GTATATACATACACTGTCGTTTAATCACACACGCCTGCTTCGGAGTCACCTAGTGCAG,9990 fluorescence intensity (a.u.)
6,CAGCCAACATTGATATGTTGTTTAGTCCATGTAGTCCCAACGGAGTCACCTAGTGCAG,9120 fluorescence intensity (a.u.)
7,TGTTTATTATCCTCTCTTGTTCCTCTTTTCTCTCTCCAATCGGAGTCACCTAGTGCAG,11100 fluorescence intensity (a.u.)
8,TTTTAACTTTTTCGTCACATCGTTCTAATTTCAACTAAACCGGAGTCACCTAGTGCAG,8080 fluorescence intensity (a.u.)
9,TTTCTGCACTTCTTTTCTTTTGGCACATTCTCATCGTATTCGGAGTCACCTAGTGCAG,8610 fluorescence intensity (a.u.)
10,AGTAGTTCAAGTTATATAAGGTATTTCCTCCGTTTCACAACGGAGTCACCTAGTGCAG,9010 fluorescence intensity (a.u.)
11,CCATCATGTCGTCCTCGAGCCCCGCGCGCCATCATATCGTCGGAGTCACCTAGTGCAG,9680 fluorescence intensity (a.u.)
12,TTCACTCATCACTTATCACTCATTCTTTCATTCCTCACTCCGGAGTCACCTAGTGCAG,9900 fluorescence intensity (a.u.)
13,GGATTGGGGAGTGATTCGGTTTGTTCTTGATTTTGATTTTCGGAGTCACCTAGTGCAG,15700 fluorescence intensity (a.u.)
14,AATGGAAAAGGGAGGGTGTTCAGCAGGCAATGGGAGTTTACGGAGTCACCTAGTGCAG,10600 fluorescence intensity (a.u.)
15,CTCCTCGTCGTCATCGACATCGTATCACTCACTGCTCACTCGGAGTCACCTAGTGCAG,9850 fluorescence intensity (a.u.)
16,AGGTGACGACTCTCCTTTTCCGGCTTCTTCTCTTCTTTCCCGGAGTCACCTAGTGCAG,16200 fluorescence intensity (a.u.)
17,AGCCGTCCGATCGTCCGCCACGTCATCGATCCGCGTGACTCGGAGTCACCTAGTGCAG,9920 fluorescence intensity (a.u.)
18,TGCTATACTGCCGAGGGACCTCGTTTGTACGGTTTTGTAACGGAGTCACCTAGTGCAG,8760 fluorescence intensity (a.u.)
19,GCAACCACCAGCTGACAGGGCGTTTTCTCACGTCGCATTTCGGAGTCACCTAGTGCAG,9280 fluorescence intensity (a.u.)
20,AACGCGGCCATCGCTTTTGCTGTACTTTGCCTTCCGCTTTCGGAGTCACCTAGTGCAG,11000 fluorescence intensity (a.u.)
21,TTCCTTGGCCATCTCTGCCTTTTCCTTCCTACTTTTCTCACGGAGTCACCTAGTGCAG,8800 fluorescence intensity (a.u.)

row,Sequence,binding signal
1,CATAAAGAGAACTCTGCATATTCCTGTTTTCTCTTAACCTCGGAGTCACCTAGTGCAG,8680 fluorescence intensity (a.u.)
2,AGGTCAGTTCTTTAGTTCAGGTGTTTCTGGTATTATTTTCCGGAGTCACCTAGTGCAG,8060 fluorescence intensity (a.u.)
3,CTCCCCGCGAACCCACTCCCAGCCGCCGCCGCCGCCACCTCGGAGTCACCTAGTGCAG,8640 fluorescence intensity (a.u.)
4,GTGGGTGGTTGGGCCTGTTGCAACGTGGTATAGCGTTGGACGGAGTCACCTAGTGCAG,12400 fluorescence intensity (a.u.)
5,GTCACTGCGTGTGTTAGGGAAGGGGAGGGAGAGCGAGAGGCGGAGTCACCTAGTGCAG,8700 fluorescence intensity (a.u.)
6,TTAAGTCCCTACACATTGCAAATTGCAGTACTTTCTTTAACGGAGTCACCTAGTGCAG,8900 fluorescence intensity (a.u.)
7,TTTCCATTTCCTACCCCTTTAATTCCTACATTTTTCCTATCGGAGTCACCTAGTGCAG,8130 fluorescence intensity (a.u.)
8,CTATTACATGCCGCACAAGCCCACAGCCCACTCACTCCTCCGGAGTCACCTAGTGCAG,8040 fluorescence intensity (a.u.)
9,TAATGGACCACTCTGTTTTCTGTGTTCAGGAGATTTATTTCGGAGTCACCTAGTGCAG,8180 fluorescence intensity (a.u.)
10,TCCTTCTATCTTGCTATCTATTCTCAATTGAACCTCTTTTCGGAGTCACCTAGTGCAG,8100 fluorescence intensity (a.u.)
11,TCTTCAATCTGCTGGATTCAGACCCTTGTCTCCTGTGTTCCGGAGTCACCTAGTGCAG,8030 fluorescence intensity (a.u.)
12,CTTTTCTGTGGTTGTTCTCTCTAGGTTTGGTGACCGTCTGCGGAGTCACCTAGTGCAG,8220 fluorescence intensity (a.u.)
13,CCGTCCATTTCACGACATCAACTGATCGATTCAACCCAAACGGAGTCACCTAGTGCAG,11200 fluorescence intensity (a.u.)
14,ACGCCGGCTTCCATCTCCGCCGCTCGCGCCTCTCGCGCCGCGGAGTCACCTAGTGCAG,8840 fluorescence intensity (a.u.)
15,TCTATTTTCCTTTTTTTTTTGTCTAGTGTGTTGGCTTTTACGGAGTCACCTAGTGCAG,12200 fluorescence intensity (a.u.)
16,TTTCAGGTTTTGCATTTCACACCTCTGTCGTCATACTTGACGGAGTCACCTAGTGCAG,17800 fluorescence intensity (a.u.)
17,CGACAATATTCGATTCCGTTTTTATATCTGAGTTTTCAATCGGAGTCACCTAGTGCAG,9460 fluorescence intensity (a.u.)
18,ACGGAGGGAGGGGCTGTTCAGATTGATGTCATTTTCAACCCGGAGTCACCTAGTGCAG,9140 fluorescence intensity (a.u.)
19,TTTTTTGTGAGATTTGTCGCACCGAGTTTCGCTATTTTCACGGAGTCACCTAGTGCAG,10100 fluorescence intensity (a.u.)
20,GTTCTCGGTGTGTACTTGGTCCATCAGTCTCTTCAGATCTCGGAGTCACCTAGTGCAG,8120 fluorescence intensity (a.u.)
21,TTTCTTGCTAGCTTTAAGGTGTGGCCGTGTCATTGTCACTCGGAGTCACCTAGTGCAG,9170 fluorescence intensity (a.u.)
